# In PubChem BioAssay AID540276 (National Center for Advancing Translational Sciences (NCATS), 2011):
# Where “and” joins values, the source holds several entries; their conditions need not be identical. Equal values may be shown once. Hit rate of the full screen: of about 300,000 compounds, about 5,400 (1.8%) were called active. The shares of active, inactive and inconclusive entries below differ from those in the screen. Calls follow the shape of the full dose curve; tested in HEK293 cells. Potencies beside an inconclusive call are fits to weak or partial responses and may not hold up.
# Assay: qHTS for inhibitors of binding or entry into cells for Marburg Virus
# Conditions: Marburg virus pseudotyped entry inhibition, cell reporter; series mostly up to 37.8 µM
# Potency is read from the fitted curve at half-maximal effect.
row,Compound,Potency
1,Cc1c(C(=O)N2CCCCC2)c(S(=O)(=O)N2CCC(C)CC2)c(C)n1C,"inconclusive: 14.1 µM [activator, single point]"
2,CCOC(=O)OC[C@H]1O[C@H](c2ccccc2)C=C[C@@H]1OC(=O)OCC,"inconclusive: 5.96 µM [activator, single point]"
3,COCCn1c(SCC(=O)Nc2cccc(S(N)(=O)=O)c2)nc2cc(Cl)ccc2c1=O,"inconclusive: 10 µM [inhibitor, partial curve, poor fit]"
4,C/C(=N\N=C(/N)SC1CC(=O)N(c2ccc(Br)cc2)C1=O)c1cccs1 (configuration not stated),inactive
5,O=C(Nc1ccncc1)C1CC(=O)N(c2ccccc2)C1 (configuration not stated),inactive
6,CCOc1ccc(Br)cc1C(=O)Nc1ccc(C(=O)NCC(C)C)cc1,"inconclusive: 35.5 µM [inhibitor, single point]"
7,Cc1cccc(OCC(=O)Nc2nc3ccc([N+](=O)[O-])cc3s2)c1,"inconclusive: 0.116 µM [inhibitor, full curve, poor fit]"
8,CCOC(=O)Nc1nc(-c2ccccc2)c(C(=O)c2ccccc2)s1,"inconclusive: 0.631 µM [inhibitor, full curve, poor fit]"
9,CCCCCCCCCCOC(=O)Cn1c(COc2ccc(OC)cc2)[n+](C)c2ccccc21,active: 3.16 µM
10,O=C(Nc1cc(Cl)ccc1N1CCOCC1)c1ccc(F)c(S(=O)(=O)N2CCOCC2)c1,inactive
11,Clc1ccc(OCCCCCN2CCCC2)c(Br)c1,"inconclusive: 29.1 µM [inhibitor, single point]"
12,CCCCCC(=O)Nc1cc(S(=O)(=O)N2CCCCC2)ccc1N1CCCCC1,"inconclusive: 22.4 µM [inhibitor, single point]"
13,CC(=O)c1cccc(NC(=S)NC(=O)c2ccccc2Cl)c1,inactive
14,CCN1CCN(c2ccc(S(=O)(=O)N3CCOCC3)cc2NC(=O)/C=C/c2ccc(C)cc2)CC1,"inconclusive: 35.5 µM [inhibitor, single point]"
15,Nc1c(C(=O)Nc2ccccc2F)sc2nc(-c3cccnc3)ccc12,"inconclusive: 2.82 µM [inhibitor, partial curve, poor fit]"
16,c1ccc2sc(N3CCOCC3)nc2c1,inactive
17,CC(C)CC(=O)N1CCN(C(=O)c2ccc(F)cc2)CC1,inactive
18,COCCCNC(=O)c1ccc(Cn2c(=O)c3ccccc3n(Cc3c(C)cc(C)cc3C)c2=O)cc1,inactive
19,O=S(=O)(c1ccc(F)c(F)c1F)N1CCN(C(=S)NCc2ccccc2)CC1,"inconclusive: 10 µM [inhibitor, partial curve, poor fit]"
20,CN(C)c1ccc(-c2noc(C3CCN(S(=O)(=O)c4cccc(C(=O)O)c4)CC3)n2)cc1,"inconclusive: 0.82 µM [inhibitor, partial curve, poor fit]"
21,Cc1ccccc1C(=O)O/N=C/c1c(N2CCOCC2)n(C)c2ccccc12,"inconclusive: 2.59 µM [inhibitor, full curve, poor fit]"
22,COC(=O)C1=C(C)N(CCc2ccc(OC)c(OC)c2)C(=O)C1,inactive
23,O=C(CCN1C(=O)c2cccc3cccc(c23)C1=O)NC1CCS(=O)(=O)C1 (configuration not stated),inactive

# Sorted by length of the SMILES (smallest number first): part of the list above
row,Compound,Potency
16,c1ccc2sc(N3CCOCC3)nc2c1,inactive
11,Clc1ccc(OCCCCCN2CCCC2)c(Br)c1,"inconclusive: 29.1 µM [inhibitor, single point]"
5,O=C(Nc1ccncc1)C1CC(=O)N(c2ccccc2)C1 (configuration not stated),inactive
17,CC(C)CC(=O)N1CCN(C(=O)c2ccc(F)cc2)CC1,inactive
13,CC(=O)c1cccc(NC(=S)NC(=O)c2ccccc2Cl)c1,inactive
8,CCOC(=O)Nc1nc(-c2ccccc2)c(C(=O)c2ccccc2)s1,"inconclusive: 0.631 µM [inhibitor, full curve, poor fit]"
6,CCOc1ccc(Br)cc1C(=O)Nc1ccc(C(=O)NCC(C)C)cc1,"inconclusive: 35.5 µM [inhibitor, single point]"
12,CCCCCC(=O)Nc1cc(S(=O)(=O)N2CCCCC2)ccc1N1CCCCC1,"inconclusive: 22.4 µM [inhibitor, single point]"
1,Cc1c(C(=O)N2CCCCC2)c(S(=O)(=O)N2CCC(C)CC2)c(C)n1C,"inconclusive: 14.1 µM [activator, single point]"
23,O=C(CCN1C(=O)c2cccc3cccc(c23)C1=O)NC1CCS(=O)(=O)C1 (configuration not stated),inactive
2,CCOC(=O)OC[C@H]1O[C@H](c2ccccc2)C=C[C@@H]1OC(=O)OCC,"inconclusive: 5.96 µM [activator, single point]"
9,CCCCCCCCCCOC(=O)Cn1c(COc2ccc(OC)cc2)[n+](C)c2ccccc21,active: 3.16 µM
3,COCCn1c(SCC(=O)Nc2cccc(S(N)(=O)=O)c2)nc2cc(Cl)ccc2c1=O,"inconclusive: 10 µM [inhibitor, partial curve, poor fit]"
10,O=C(Nc1cc(Cl)ccc1N1CCOCC1)c1ccc(F)c(S(=O)(=O)N2CCOCC2)c1,inactive
20,CN(C)c1ccc(-c2noc(C3CCN(S(=O)(=O)c4cccc(C(=O)O)c4)CC3)n2)cc1,"inconclusive: 0.82 µM [inhibitor, partial curve, poor fit]"
14,CCN1CCN(c2ccc(S(=O)(=O)N3CCOCC3)cc2NC(=O)/C=C/c2ccc(C)cc2)CC1,"inconclusive: 35.5 µM [inhibitor, single point]"

# More compounds:

row,Compound,Potency
1,CCCC1NC(C(=O)O)Cc2c1[nH]c1ccccc21 (configuration not stated),inactive
2,CCOC(=O)CN(C(=O)CNC(=O)c1ccco1)C(C(=O)NC1CCCCC1)c1cccs1 (configuration not stated),inactive
3,CCOc1cc(/C=N/NC(=O)c2ccc(=O)n(C)c2)ccc1O,inactive
4,c1ccc2c(c1)CCN(c1nc3cc4c(cc3s1)OCCO4)C2,"inconclusive: 7.3 µM [inhibitor, partial curve, poor fit]"
5,O=C(CN(c1ccc(F)cc1)S(=O)(=O)c1ccccc1)N1CCOCC1,inactive
6,COc1ccc(Cn2nnnc2C(c2ccccc2Cl)N2CCC(C(N)=O)CC2)cc1 (configuration not stated),inactive
7,CCOP(=S)(OCC)N1CCOCCOCCN(P(=S)(OCC)OCC)CCOCCOCC1,active: 10 µM
8,CCCC(=O)N1CCN(c2ccc(NC(=O)c3cc4ccccc4o3)cc2Cl)CC1,"inconclusive: 20 µM [inhibitor, single point]"
9,COc1ccc(NC(=O)/C=C/c2ccc(Br)o2)cn1,inactive
10,O=C(NCCCN1CCCC1=O)c1ccc(S(=O)(=O)Nc2cccc(C(F)(F)F)c2)cc1,"inconclusive: 1 µM [inhibitor, full curve, poor fit]"
11,CCCOc1ccc(CSc2nc3ccccc3[nH]2)cc1,"inconclusive: 8.2 µM [inhibitor, partial curve, poor fit]"
12,CCN(Cc1ccncc1)C(=O)CCc1nnc(CCc2ccc(OC)cc2)o1,inactive
13,COc1ccc(CCNC(=O)c2ccc(Cn3c(=O)c4ccccc4n(CC(=O)C(C)(C)C)c3=O)cc2)cc1OC,"inconclusive: 11.2 µM [inhibitor, partial curve, poor fit]"
14,Cc1cc(CNC(=O)COc2ccccc2)c2ccccc2n1,"inconclusive: 1.78 µM [activator, full curve, poor fit]"
15,COC(=O)Cn1cc(C(=O)c2ccccc2F)c2ccccc21,"inconclusive: 0.891 µM [inhibitor, full curve, poor fit]"
16,CN(C)C(CNC(=O)CCc1nc2cc(Cl)ccc2n(Cc2ccccc2)c1=O)c1ccccc1 (configuration not stated),"inconclusive: 22.4 µM [inhibitor, single point]"
17,CCCc1cc(=O)[nH]c(-n2[nH]c3c(c2=O)CCCC3)n1,"inconclusive: 0.562 µM [inhibitor, partial curve, poor fit]"
18,C=CCNc1nc(Cl)nc(Nc2ccc(OC)cc2OC)n1,"inconclusive: 6.31 µM [inhibitor, full curve, poor fit]"
19,O=C(CSCc1ccccc1)N/N=C/c1cc2c(cc1Br)OCO2,"inconclusive: 35.5 µM [inhibitor, single point]"
20,O=C(Nc1nc2c(s1)CCCC2)c1cccc(S(=O)(=O)N2CCCc3ccccc32)c1,"inconclusive: 17.8 µM [inhibitor, single point]"
21,CCCC(=O)NC(=S)Nc1ccc(N2CCN(C(=O)c3cccs3)CC2)cc1,"inconclusive: 7.94 µM [inhibitor, single point]"
22,Cc1nc(SCCOc2ccccc2F)[nH]c(=O)c1Cc1ccccc1,"inconclusive: 5.62 µM [activator, single point]"
23,COc1cc2c(cc1NC(=O)c1ccco1)CCCC2,inactive

# Some of the entries so far, as tab-separated lines:
row	Compound	Potency
6	COc1ccc(Cn2nnnc2C(c2ccccc2Cl)N2CCC(C(N)=O)CC2)cc1 (configuration not stated)	inactive
23	COc1cc2c(cc1NC(=O)c1ccco1)CCCC2	inactive

# Later entries

row,Compound,Potency
1,Nc1nnc(SCCCOc2ccc(F)cc2)s1,inactive
2,Cc1cc(SCc2cc(=O)n3ccsc3n2)nc2ccccc12,"inconclusive: 1.41 µM [inhibitor, partial curve, poor fit]"
3,CCN(Cc1ccccc1)c1ccc(/C=N/NC(=S)NC(C)C)cc1,"inconclusive: 11.2 µM [inhibitor, partial curve, poor fit]"
4,CCCOc1ccc(C2C(C(=O)c3ccc(C)o3)=C(O)C(=O)N2CCN2CCOCC2)cc1OC (configuration not stated),"inconclusive: 0.231 µM [inhibitor, full curve, poor fit]"
5,CC1(C)C(=O)Nc2ccccc2N1C(=O)c1ccc([N+](=O)[O-])cc1,"inconclusive: 35.5 µM [inhibitor, single point]"
6,Cc1[nH]nc2c1C(c1cccc(OC(=O)N3CCOCC3)c1)C(C#N)=C(N)O2 (configuration not stated),"inconclusive: 35.5 µM [activator, partial curve, poor fit]"
7,CCCCNCCOc1ccccc1-c1ccccc1,"inconclusive: 29.1 µM [inhibitor, single point]"
8,CCOC(=O)Cc1c(C)nc2c(-c3ccccc3)c[nH]n2c1=O,"inconclusive: 14.1 µM [inhibitor, partial curve, poor fit]"
9,COc1ccc(C)cc1NC(=O)NC1CCN(Cc2ccccc2)CC1,"inconclusive: 3.66 µM [inhibitor, partial curve, poor fit]"
10,Cc1cccc2c1cnn2C(=O)Nc1ccccc1Br,"inconclusive: 31.6 µM [activator, partial curve, poor fit]"
11,Cc1ccc(OCC(=O)Nc2ccc(S(=O)(=O)N3CCCCC3)cc2)c([N+](=O)[O-])n1,inactive
12,C#CCn1c(S(=O)(=O)Cc2ccc(OC)cc2)nc(-c2ccccc2)c1-c1ccccc1,active: 4.11 µM
13,CCCCC(=O)N/N=C/c1ccc(-c2ccc([N+](=O)[O-])cc2)o1,inactive
14,CCCCNc1nc2ccccc2c2nc(-c3ccccc3)nn12,"inconclusive: 5.62 µM [activator, single point]"
15,COc1cc(C(=O)NNC(=O)c2nn(C)c(=O)c3ccccc23)cc(OC)c1OC,"inconclusive: 35.5 µM [inhibitor, single point]"
16,COc1cc(NS(=O)(=O)c2ccc(N/C=C\C(=O)c3ccc(F)cc3)cc2)nc(OC)n1,"inconclusive: 0.355 µM [inhibitor, partial curve, poor fit]"
17,O=C(CCc1ccccc1)NNC(=O)c1ccccc1Cl,"inconclusive: 17.8 µM [activator, single point]"
18,CCCCN(CC)CCNC(=O)c1cc2c(=O)n(CC)c3ccccc3c2s1,"inconclusive: 3.16 µM [inhibitor, single point] and inconclusive: 3.16 µM [inhibitor, partial curve, poor fit]"
19,Cc1ccc(Nc2nc(CSc3nnc(-c4cccnc4)n3-c3ccccc3C)cs2)cc1,"inconclusive: 29.1 µM [inhibitor, single point]"
20,CC12CCC3C(CCC4(O)CC(O)CCC34C=O)C1(O)CCC2C1=CC(=O)OC1 (configuration not stated),active: 0.447 µM
21,COC(=O)C1=C(C)NC2=C(C(=O)CC(c3cccs3)C2)C1c1ccsc1 (configuration not stated),inactive
